Test results: PMC5996148
“And” between values parts separate entries of the source, which are not always exact repeats. Equal entries are not always repeated. Some of the results follow.

Experiments:
Experiment in all cases: protein microarray (ProtoArray v5.0), streptavidin-Alexa Fluor 647
Conditions in all cases: 3'-biotin; 20 mM Tris (pH 7.5), 5 mM MgCl2, 100 mM KCl, 0.1% Tween-20, A/T-rich and random oligonucleotide blockers; temperature not stated; high values mean tight binding
G6PC (human) = test system: G6PC (human)
[1] = test system: GA-binding protein subunit beta-1 (human)
GABPA (human) = test system: GABPA (human)
GABPB2 (human) = test system: GABPB2 (human)
GADD45G (human) = test system: GADD45G (human)
GAMT (human) = test system: GAMT (human)
GAP43 (human) = test system: GAP43 (human)
GAPDHS (human) = test system: GAPDHS (human)
[2] = test system: GAS2-like protein 3 (human)
GAST (human) = test system: GAST (human)
GBP6 (human) = test system: GBP6 (human)
GCA (human) = test system: GCA (human)
GCLM (human) = test system: GCLM (human)
GDPD5 (human) = test system: GDPD5 (human)
GGA2 (human) = test system: GGA2 (human)
GIF (human) = test system: GIF (human)
GIMAP6 (human) = test system: GIMAP6 (human)
GLYATL2 (human) = test system: GLYATL2 (human)
GLYCTK (human) = test system: GLYCTK (human)
GMFB (human) = test system: GMFB (human)

**Q.** “GGGGACAGGGGTATGGGGAGGGG [G4-3 biotinylated (CtG)]” was tested. Which binding signal (G6PC (human)) did it give?
**A.** -0.329 z-score

**Q.** And the binding signal [1]?
**A.** -0.343 z-score

**Q.** And the binding signal (GABPA (human))?
**A.** -0.335 z-score

**Q.** What about the binding signal (GABPB2 (human)) of the same sequence?
**A.** -0.343 z-score and -0.326 z-score

**Q.** And the binding signal (GADD45G (human))?
**A.** -0.291 z-score

**Q.** What about the binding signal (GAMT (human)) of the same sequence?
**A.** -0.323 z-score

**Q.** And the binding signal (GAP43 (human))?
**A.** -0.33 z-score

**Q.** What about the binding signal (GAPDHS (human)) of the same sequence?
**A.** -0.322 z-score

**Q.** What about the binding signal [2] of the same sequence?
**A.** 3.96 z-score

**Q.** And the binding signal (GAST (human))?
**A.** -0.312 z-score

**Q.** What about the binding signal (GBP6 (human)) of the same sequence?
**A.** -0.327 z-score

**Q.** What about the binding signal (GCA (human)) of the same sequence?
**A.** -0.332 z-score

**Q.** What about the binding signal (GCLM (human)) of the same sequence?
**A.** -0.319 z-score

**Q.** And the binding signal (GDPD5 (human))?
**A.** -0.326 z-score

**Q.** And the binding signal (GGA2 (human))?
**A.** -0.336 z-score

**Q.** And the binding signal (GIF (human))?
**A.** -0.324 z-score

**Q.** And the binding signal (GIMAP6 (human))?
**A.** -0.337 z-score

**Q.** And the binding signal (GLYATL2 (human))?
**A.** -0.317 z-score

**Q.** And the binding signal (GLYCTK (human))?
**A.** -0.318 z-score

**Q.** And the binding signal (GMFB (human))?
**A.** -0.321 z-score
